Measured values from publication PMC3906106.
Results from cells or extracts need not show a direct contact. For some assays here: A negative result means that nothing was seen under these conditions. For some assays here: For at least one entry, the source does not settle the construct or the ends of the probe.

By UniProt entry, the sequences of proteins in these tests, tags left out. Residues count along the entry.
UniProt P07355, 2-339: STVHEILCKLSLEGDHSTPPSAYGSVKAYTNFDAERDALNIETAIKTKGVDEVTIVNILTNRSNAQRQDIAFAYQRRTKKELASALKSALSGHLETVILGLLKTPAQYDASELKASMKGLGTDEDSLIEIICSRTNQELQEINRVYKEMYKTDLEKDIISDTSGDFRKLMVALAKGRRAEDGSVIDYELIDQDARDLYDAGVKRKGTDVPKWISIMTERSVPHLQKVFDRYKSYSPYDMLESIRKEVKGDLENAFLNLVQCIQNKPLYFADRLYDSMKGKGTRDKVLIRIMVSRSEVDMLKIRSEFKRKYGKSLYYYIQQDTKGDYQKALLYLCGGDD

Experiments:
[1] = target: Annexin A2 (human (MCF-7 cells)) (UniProt P07355); test: pull-down from MCF-7 cells, silver stain; settings: tRNA, ssDNA, polyinosine competitors, 1 mM Ca2+, 0.5 mM Mg2+, 37 kD band not observed, 2'-F pyrimidines (2'F-C, 2'F-U), pull-down: D-PBS with 1 mM Ca2+, 20 nM RNA, on ice, protein in an extract, label: 3'-biotin
[2] = target: Annexin A2 (human (MCF-7 cells)) (UniProt P07355); test: pull-down from MCF-7 cells, LC-MS/MS; settings: tRNA, ssDNA, polyinosine competitors, 1 mM Ca2+, 0.5 mM Mg2+, 2'-F pyrimidines (2'F-C, 2'F-U), pull-down: D-PBS with 1 mM Ca2+, 20 nM RNA, on ice, protein in an extract, label: 3'-biotin

Sequence | binding result [1] | binding result [2]
GGGAGAUGAUCCGUUGAUGCGAGGAUCCCUACGACCUCGUAGCACACACAUAGGUGCACUCACCCGGCUGACCAAGUCGUCGUUCGUAGGCAGAAUC [Scramble sequence 3'-biotin] | no binding | 
GGGAGAUGAUCCGUUGAUGCGAGGGAACGCAAGAACUGAGGCCAUGAGGCGCCUUCCCUUGCUCAGGACGCAAGUCGUCGUUCGUAGGCAGAAUC [ACE4 3'-biotin] |  | binds
